This passage reports binding results from PMC6336796.

The chains behind the UniProt entries cited, without tags or fusion partners. Where a name states a change or a piece, a line headed by the entry shows the natural chain unless it says otherwise.
UniProt Q96EP0: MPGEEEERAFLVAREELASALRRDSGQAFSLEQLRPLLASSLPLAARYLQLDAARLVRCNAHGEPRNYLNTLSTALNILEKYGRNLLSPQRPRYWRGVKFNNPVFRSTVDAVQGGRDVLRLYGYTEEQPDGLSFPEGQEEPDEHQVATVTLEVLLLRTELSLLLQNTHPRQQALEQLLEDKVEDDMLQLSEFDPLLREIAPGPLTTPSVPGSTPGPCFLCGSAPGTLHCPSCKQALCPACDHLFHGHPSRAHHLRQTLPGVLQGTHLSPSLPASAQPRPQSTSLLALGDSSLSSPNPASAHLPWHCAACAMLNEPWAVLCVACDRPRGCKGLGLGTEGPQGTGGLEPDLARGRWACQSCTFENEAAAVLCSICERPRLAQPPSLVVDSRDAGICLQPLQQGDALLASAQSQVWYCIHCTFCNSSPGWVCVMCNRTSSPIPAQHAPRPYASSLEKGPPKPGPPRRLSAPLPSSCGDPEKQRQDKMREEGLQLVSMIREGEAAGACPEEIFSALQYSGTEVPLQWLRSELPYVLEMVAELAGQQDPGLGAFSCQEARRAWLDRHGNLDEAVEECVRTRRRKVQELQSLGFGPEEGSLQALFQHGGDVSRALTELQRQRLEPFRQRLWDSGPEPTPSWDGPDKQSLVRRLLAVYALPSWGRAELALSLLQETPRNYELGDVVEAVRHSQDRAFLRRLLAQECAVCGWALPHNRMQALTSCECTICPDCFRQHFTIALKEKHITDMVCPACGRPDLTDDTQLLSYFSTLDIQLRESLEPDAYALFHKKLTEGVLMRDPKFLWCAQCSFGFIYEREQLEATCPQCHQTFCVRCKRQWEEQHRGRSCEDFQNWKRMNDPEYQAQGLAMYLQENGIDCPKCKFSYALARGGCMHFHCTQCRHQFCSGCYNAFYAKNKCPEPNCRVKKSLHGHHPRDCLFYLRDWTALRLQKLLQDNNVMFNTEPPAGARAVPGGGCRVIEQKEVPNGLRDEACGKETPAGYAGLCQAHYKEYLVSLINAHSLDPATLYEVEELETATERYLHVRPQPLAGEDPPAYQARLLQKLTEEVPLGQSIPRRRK
UniProt Q02224: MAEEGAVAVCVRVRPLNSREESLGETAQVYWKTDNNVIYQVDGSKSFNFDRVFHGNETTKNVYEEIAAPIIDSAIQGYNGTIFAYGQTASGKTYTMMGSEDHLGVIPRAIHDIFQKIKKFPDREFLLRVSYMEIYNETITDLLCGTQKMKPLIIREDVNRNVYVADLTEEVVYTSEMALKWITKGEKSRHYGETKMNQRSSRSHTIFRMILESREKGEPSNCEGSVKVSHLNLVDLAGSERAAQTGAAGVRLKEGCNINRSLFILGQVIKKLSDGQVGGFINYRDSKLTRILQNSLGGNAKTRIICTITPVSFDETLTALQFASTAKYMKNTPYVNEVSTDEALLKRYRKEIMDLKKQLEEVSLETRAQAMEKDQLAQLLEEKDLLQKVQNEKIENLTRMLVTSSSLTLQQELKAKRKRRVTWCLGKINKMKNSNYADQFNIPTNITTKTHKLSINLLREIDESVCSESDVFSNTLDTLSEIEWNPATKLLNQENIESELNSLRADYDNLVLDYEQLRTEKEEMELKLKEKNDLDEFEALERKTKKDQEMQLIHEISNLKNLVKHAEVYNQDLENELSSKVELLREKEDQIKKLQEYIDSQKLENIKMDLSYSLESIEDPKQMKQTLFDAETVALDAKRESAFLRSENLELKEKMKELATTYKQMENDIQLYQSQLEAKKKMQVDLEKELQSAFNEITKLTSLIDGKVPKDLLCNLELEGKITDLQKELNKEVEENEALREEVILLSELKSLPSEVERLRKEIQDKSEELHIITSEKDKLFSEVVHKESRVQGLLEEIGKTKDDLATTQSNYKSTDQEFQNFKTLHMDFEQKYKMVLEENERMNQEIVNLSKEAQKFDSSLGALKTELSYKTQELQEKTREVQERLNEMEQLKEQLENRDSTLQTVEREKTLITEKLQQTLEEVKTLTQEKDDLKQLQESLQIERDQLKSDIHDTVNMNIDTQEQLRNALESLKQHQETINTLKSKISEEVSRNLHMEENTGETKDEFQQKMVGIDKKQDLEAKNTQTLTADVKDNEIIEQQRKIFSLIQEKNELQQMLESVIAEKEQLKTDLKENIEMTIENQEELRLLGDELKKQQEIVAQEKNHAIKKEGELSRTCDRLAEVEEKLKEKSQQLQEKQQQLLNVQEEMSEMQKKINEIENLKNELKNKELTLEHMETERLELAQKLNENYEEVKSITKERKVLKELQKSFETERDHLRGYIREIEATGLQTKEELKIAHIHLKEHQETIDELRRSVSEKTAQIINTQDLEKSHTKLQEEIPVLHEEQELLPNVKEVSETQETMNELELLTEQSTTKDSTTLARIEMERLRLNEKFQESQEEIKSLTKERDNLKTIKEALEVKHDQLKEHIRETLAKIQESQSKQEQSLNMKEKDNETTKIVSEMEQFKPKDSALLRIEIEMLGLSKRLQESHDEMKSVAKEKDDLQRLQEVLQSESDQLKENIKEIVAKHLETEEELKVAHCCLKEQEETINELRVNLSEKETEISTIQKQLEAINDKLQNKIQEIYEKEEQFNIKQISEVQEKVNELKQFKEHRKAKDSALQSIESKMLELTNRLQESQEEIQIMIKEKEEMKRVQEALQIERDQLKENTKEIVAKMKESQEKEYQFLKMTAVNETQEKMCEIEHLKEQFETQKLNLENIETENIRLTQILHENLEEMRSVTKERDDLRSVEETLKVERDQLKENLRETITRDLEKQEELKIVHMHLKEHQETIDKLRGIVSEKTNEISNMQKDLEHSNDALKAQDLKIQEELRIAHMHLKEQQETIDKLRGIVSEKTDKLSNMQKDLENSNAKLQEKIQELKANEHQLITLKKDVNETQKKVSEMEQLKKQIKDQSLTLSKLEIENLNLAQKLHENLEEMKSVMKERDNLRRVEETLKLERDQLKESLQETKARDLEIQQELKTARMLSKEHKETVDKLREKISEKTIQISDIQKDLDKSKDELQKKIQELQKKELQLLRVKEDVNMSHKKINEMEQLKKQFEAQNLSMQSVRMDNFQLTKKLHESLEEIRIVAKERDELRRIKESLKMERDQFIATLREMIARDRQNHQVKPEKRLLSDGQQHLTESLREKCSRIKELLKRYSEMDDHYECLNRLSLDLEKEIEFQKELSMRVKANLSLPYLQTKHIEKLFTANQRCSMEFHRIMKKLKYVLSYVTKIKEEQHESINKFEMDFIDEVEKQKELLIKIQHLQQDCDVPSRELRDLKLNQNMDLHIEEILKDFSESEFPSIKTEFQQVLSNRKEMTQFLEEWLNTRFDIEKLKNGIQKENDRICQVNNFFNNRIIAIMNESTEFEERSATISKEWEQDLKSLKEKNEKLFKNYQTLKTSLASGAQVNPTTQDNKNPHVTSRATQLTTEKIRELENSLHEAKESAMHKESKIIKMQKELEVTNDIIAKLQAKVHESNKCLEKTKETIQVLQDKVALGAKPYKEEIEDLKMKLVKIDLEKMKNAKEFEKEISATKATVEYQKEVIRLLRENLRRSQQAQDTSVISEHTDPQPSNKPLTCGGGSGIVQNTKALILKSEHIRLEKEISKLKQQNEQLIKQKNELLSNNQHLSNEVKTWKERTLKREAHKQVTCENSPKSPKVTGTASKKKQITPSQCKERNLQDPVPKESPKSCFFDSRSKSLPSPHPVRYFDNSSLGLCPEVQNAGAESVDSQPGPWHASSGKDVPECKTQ
UniProt Q8IX90: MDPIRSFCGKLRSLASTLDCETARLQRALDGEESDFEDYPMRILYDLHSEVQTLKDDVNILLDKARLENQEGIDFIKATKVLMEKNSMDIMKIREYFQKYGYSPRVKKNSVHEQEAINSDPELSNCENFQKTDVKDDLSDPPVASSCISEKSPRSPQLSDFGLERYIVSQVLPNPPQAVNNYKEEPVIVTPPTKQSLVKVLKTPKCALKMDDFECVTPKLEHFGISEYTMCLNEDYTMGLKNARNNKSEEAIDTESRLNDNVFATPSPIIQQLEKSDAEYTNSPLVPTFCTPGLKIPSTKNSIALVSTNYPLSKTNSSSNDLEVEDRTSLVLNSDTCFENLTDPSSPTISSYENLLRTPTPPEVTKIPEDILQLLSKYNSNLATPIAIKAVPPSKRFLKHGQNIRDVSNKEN

Results are given in words; binding and its absence hold for the method and conditions named. In cells and extracts the contact can be indirect. Some results given as binding are weak or reduced against the parent protein; the word gives no strength.

For this assay, the target named is linear ubiquitin chain assembly complex (LUBAC), ectopic (UniProt Q96EP0). Briefly: co-IP; mitotic HeLa cells transfected with LUBAC components; endogenous proteins detected by blot; which protein was precipitated is not told.

For the substance “endogenous CENP-E (from UniProt Q02224 1-2701)”, the binding result was “binds”.
The entry for “kinetochore protein Ska3 (from UniProt Q8IX90 1-412)” is “no binding”.
